Measurements taken from article PMC4220969, “Structural basis for the recognition of muramyltripeptide by Helicobacter pylori Csd4, a D,L-carboxypeptidase controlling the helical cell shape” (Acta Crystallographica Section D: Biological Crystallography, 2014).
Results are given in words; binding and its absence hold for the method and conditions named.

Molecular target: Helicobacter pylori Csd4 (HP1075 in strain 26695), recombinant, residues Met22-Val438 (Helicobacter pylori strain 26695) (UniProt O25708)
Experiment: crystal structure; Csd4 crystals (unbound, muramyltripeptide-bound, mDAP-bound), one monomer in the asymmetric unit; 200 mM calcium chloride, 100 mM HEPES pH 7.5, 25% PEG 3350; both purified

- binding: no binding
B1: Helicobacter pylori Csd4 (HP1075 in strain 26695), recombinant, residues Met22-Val438 (enzyme, UniProt O25708 22-438)
chain: MIEKAPTNVEDRDKAPHLLLLAGIQGDEPGGFNATNLFLMHYSVLKGLVEVVPVLNKPSMLRNHRGLYGDMNRKFAALDKNDPEYPTIQEIKSLIAKPSIDAVLHLHDGGGYYRPVYVDAMLNPKRWGNCFIIDQDEVKGAKFPNLLAFANNTIESINAHLLHPIEEYHLKNTRTAQGDTEMQKALTFYAINQKKSAFANEASKELPLASRVFYHLQAIEGLLNQLNIPFKRDFDLNPNSVHALINDKNLWAKISSLPKMPLFNLRPKLNHFPLPHNTKIPQIPIESNAYIVGLVKNKQEVFLKYGNKLMTRLSPFYIEFDPSLEEVKMQIDNKDQMVKIGSVVEVKESFYIHAMDNIRANVIGFSVSNENKPNEAGYTIKFKDFQKRFSLDKQERIYRIEFYKNNAFSGMILVKFV
